Source: article PMC9616960
Results are given in words; binding and its absence hold for the method and conditions named. In cells and extracts the contact can be indirect. A yes stands for co-enrichment or nearness to the bait. Other partners may have been found.

T1: Nephrin (not stated (endogenous in glomeruli of rat or mouse)) (UniProt Q9R044)
T1 sequence: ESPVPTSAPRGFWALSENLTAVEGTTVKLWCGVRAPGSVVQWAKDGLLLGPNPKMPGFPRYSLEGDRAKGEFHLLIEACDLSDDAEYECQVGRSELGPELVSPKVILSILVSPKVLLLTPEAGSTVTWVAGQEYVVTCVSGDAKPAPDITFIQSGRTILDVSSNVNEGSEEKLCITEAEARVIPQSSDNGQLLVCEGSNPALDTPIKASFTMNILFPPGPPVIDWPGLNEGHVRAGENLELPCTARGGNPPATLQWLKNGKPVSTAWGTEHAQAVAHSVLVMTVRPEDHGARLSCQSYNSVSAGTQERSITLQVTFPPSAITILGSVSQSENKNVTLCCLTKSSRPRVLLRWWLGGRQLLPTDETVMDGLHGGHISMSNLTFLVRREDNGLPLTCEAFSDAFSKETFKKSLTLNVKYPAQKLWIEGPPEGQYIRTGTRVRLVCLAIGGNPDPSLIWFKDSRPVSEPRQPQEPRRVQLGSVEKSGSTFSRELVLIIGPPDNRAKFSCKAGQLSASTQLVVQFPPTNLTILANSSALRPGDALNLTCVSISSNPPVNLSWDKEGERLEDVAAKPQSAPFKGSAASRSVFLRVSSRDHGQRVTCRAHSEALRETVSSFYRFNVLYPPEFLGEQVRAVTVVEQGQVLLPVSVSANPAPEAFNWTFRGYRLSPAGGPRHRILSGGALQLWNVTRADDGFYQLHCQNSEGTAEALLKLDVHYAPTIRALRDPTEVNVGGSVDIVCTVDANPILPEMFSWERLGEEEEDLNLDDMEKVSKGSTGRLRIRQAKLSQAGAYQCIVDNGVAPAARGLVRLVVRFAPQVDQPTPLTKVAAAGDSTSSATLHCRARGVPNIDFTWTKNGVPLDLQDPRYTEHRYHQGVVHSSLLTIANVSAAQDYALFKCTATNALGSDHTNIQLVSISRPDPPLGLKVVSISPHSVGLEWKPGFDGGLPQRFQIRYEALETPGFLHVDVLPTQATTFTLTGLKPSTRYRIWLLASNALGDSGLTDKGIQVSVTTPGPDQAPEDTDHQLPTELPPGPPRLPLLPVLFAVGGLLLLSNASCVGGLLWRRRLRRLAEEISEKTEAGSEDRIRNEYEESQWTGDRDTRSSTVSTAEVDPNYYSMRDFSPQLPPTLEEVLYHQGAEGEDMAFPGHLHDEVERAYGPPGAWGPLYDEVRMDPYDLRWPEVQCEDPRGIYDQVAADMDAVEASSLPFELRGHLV

T2: Neph1 (not stated (endogenous in glomeruli of rat or mouse)) (UniProt Q6X936)
T2 sequence: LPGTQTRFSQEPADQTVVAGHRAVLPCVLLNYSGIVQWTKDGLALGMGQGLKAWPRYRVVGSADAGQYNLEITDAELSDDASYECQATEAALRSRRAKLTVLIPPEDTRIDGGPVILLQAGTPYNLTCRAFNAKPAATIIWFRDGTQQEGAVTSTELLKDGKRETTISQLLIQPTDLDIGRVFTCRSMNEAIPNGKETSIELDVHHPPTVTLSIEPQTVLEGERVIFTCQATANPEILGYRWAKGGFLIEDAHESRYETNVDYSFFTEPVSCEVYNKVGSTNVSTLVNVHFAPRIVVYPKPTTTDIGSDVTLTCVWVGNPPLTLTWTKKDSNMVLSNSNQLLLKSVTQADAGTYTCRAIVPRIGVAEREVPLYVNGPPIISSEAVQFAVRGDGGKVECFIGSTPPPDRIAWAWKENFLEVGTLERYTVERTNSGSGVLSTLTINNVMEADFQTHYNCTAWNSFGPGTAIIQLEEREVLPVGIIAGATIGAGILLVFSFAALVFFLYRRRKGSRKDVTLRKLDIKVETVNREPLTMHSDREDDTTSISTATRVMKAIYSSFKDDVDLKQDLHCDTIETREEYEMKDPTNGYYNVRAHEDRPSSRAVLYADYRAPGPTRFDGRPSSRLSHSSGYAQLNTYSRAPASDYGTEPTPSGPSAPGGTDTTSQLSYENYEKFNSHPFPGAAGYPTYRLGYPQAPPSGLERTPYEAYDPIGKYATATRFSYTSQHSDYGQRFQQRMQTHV


What was measured:
[1] = molecular target: T1, Nephrin (not stated (endogenous in glomeruli of rat or mouse)); experiment: affinity purification with mass spectrometry; three anti-Nephrin/Neph1 ABs immobilised on magnetic beads, two hours with CL-47 or CL-91 solubilisates of glomerular membrane fractions; eluates by nano-LC-MS/MS; specific: tnR >=0.2 against three target-unrelated ABs/IgG, in at least two anti-Nephrin/Neph1 APs
[2] = molecular target: T2, Neph1 (not stated (endogenous in glomeruli of rat or mouse)); experiment: as above

Binder	binding [1]	binding [2]
Basal cell adhesion molecule (protein, UniProt Q9ESS6 26-624) ELHVSVPPRVEVMRGEQIALDCTPREHPENYVLEWLLVDASGARHRLASVEPQGSEFLGTIHNSRGRRPPYKIDSLGRLVIAEAQVGDERDYVCVVKAGAAGTSEATSSVRVFATPEATEVAPNKGTLSVMEQFAQEIATCSSNNGNPVPRITWYQNGQRLDVPMELNSKGYMTSRTVREASGLYSLTSTLYLRLHKEDRDASFHCAAHYDLPSGQHGRLDSHTFRLTLHYPTEHVEFWVGSPSTTEGWVREGDAVQLLCQGDGSPSPEYSFFREQGNQEEQLNVNLKGNLTLEGVHRSQSGIYGCRVEDYDADEEVQLVKKLKLHVAYLDPLELSVPEEFSVFLNSSGTVVNCSARGLPAPIVRWTKDSVTVADGPILSLDSVTFDSAGTYTCEASTPTVPLLSRTQSFQLVVQGAPELKPNEIKPKSGTSWTEGDEVMLTCSARGFPEPKLTWSQRGDTTPAEPPFEGRGWMSSSLTLKVTSALSREGVSCEASNIHGKNGHVFHFGSVAPQTAQAGVAVMAVAVSVGLLLLVVAAFYCMRRKGRPGCCQRAEKGAPPAREPELSHSGSERPEHTGLLMGGPSGGGRGGNGGFGDEC	binds	binds
Choline transporter-like protein 2 (protein, UniProt B4F795 1-705) MGKDSQHYYGKHGTPQKYDPTFKGPIYNRGCTDIICCVLLFLAIVGYVAVGIIAWTHGDPRKVIYPTDSRGEFCGQKGTKNADKPFLFYFNIVKCASPLVLLEFHCPTPQICVKQCPDRYLTFLSARNSRDFDYYKQFCVPGFKNNKGVAEVLRDGECPAVIIPSKPLAQRCFPAIHASKGVLMVGNETTYEDGHGTRKNVTDLVEGAKKANKVLEARQLAMQIFEDYTVSWYWIVIGLVIAMLLSLMFIVLLRFLAGVMVWVMIVMVILVLGYGIFHCYAEYSRLRGEAGSDVSLVDLGFQTDLRVYLHLRQTWMAFMIILSILEVVIILLLIFLRKRILIAIALIKEASRAVGHVMCSMLYPLVTFFLLCLCIAYWASTSVFLSTSNVAVYKIVDDTPCPLLGKTCNPETFPLNESRQCPNGRCQFAFYGGESTYHRALLGLQIFNAFMFFWLANFVLALGQVTLAGAFASYYWAMRKPDDMPAFPLFSAFGRALRYHTGSLAFGSLILAIVQIIRVMLEYLDQRLKAAQNKFAKFLMVCLKCCFWCLEKFIKFLNRNAYIMIAIYGTNFCTSARNAFFLLMRNIIRVAVLDKVTDFLFLLGKLLIVGSVGILAFFFFTHRIRIVQDTAPPLNYYWVPILTVIIGSYLIAHGFFSVYGMCVDTLFLCFLEDLERNDGSAERPYFMSSTLKKLLNKTNKKVAES	binds	binds
Dendrin (protein, UniProt P50617 1-707) MLDGPLFSEGPDSPRELQDEESGSCLWVQKSKLLVIEVKTISCHYSRRAASRQSMDIQASYWARGPQNRTCRLRPGSPEPPPRRPWASRVLQEATNWRAGPPAEVRAREQEKRKAASQEREAKETERKRRKAGGARRSPLGQPRPELRNALRAAQPTGFPVFSRPERFGQVGRAPRPSALPQGDPGVAWAGPWGGRRPGPPSYEAHLLLRGAAGTAPRRRWDRPPPYVAPPSYEGPHRTLGTKRGPELSRAPTSSAPVPATTRTEGGRTKKRLDPRIYRDVLGAWGLRQGRGLLGGAPGCAAARARPESCKGAVEKSSGLAAAGLNSGGDGHSQAKTTGPVTEVALSGSTISSPPRPVPRSRQHLRGSRKGKEGSEEMWLPTCWLSSPKKPPVRHSQTLPRPWAPGGTGWKESLGQREGTEHETLEVWKVTRRAHTLPRSSRGPAGREGIFVIDATCVVIKSQYVPTPRTQQRQLAPSGESCIVSDSLRQPKPCLEEEGKGAAANPSVCQKRLLSSRVLNPPSEGREFEAEGRQQGDSSLEERSSSGLGFPVGEVNPRDAPTHPGSPEHSTLGPAAPGCAGSVKGPEAAGVPRRAGGGWARTPGPYAGALREAVSRIRRHTAPDSDSDEAEDLSAHSGSSDGSDTDAPGASWRNERTLPAVGNTRPREGGKTAELGDSIGEILDVISQTEEGLVREDTRKTPQGKRE	binds	binds
Claudin-15 (protein, UniProt D3ZQJ0 1-227) MSIAVETFGFFMSALGLLMLGVTLPNSYWRVSTVHGNVITTNTIFENLWYSCATDSLGVSNCWDFPSMLALSGYVQGCRALMITAILLGFLGLFLGMVGLRCTNVGNIDLSRKAKLLAIAGAFHILAGACGMVAISWYAVNITTDFFNPLYVGTKYELGSALYLGWSASLLSILGGICVFSTCCCDSKEDPATRVGLPYKPSTVVTARATSDESDVSFGKYGKNAYV	binds	binds

The next lines start with the values.

binding [1]	binding [2]	Binder
binds	binds	Lipolysis-stimulated lipoprotein receptor (protein, UniProt Q9WU74 36-593) AIQVTVSDPYHVVILFQPVTLPCTYQMSNTLTVPIVIWKYKSFCRDRIADAFSPASVDNQLNAQLAAGNPGYNPYVECQDSVRTVRVVATKQGNAVTLGDYYQGRRITITGNADLTFEQTAWGDSGVYYCSVVSAQDLDGNNEAYAELIVLGRTSEAPELLPGFRAGPLEDWLFVVVVCLASLLLFLLLGICWCQCCPHTCCCYVRCPCCPDKCCCPEALYAAGKAATSGVPSIYAPSIYTHLSPAKTPPPPPAMIPMGPPYGYPGDFDRHSSVGGHSSQVPLLRDVDGSVSSEVRSGYRIQANQQDDSMRVLYYMEKELANFDPSRPGPPNGRVERAMSEVTSLHEDDWRSRPSRAPALTPIRDEEWNRHSPQSPRTWEQEPLQEQPRGGWGSGRPRARSVDALDDINRPGSTESGRSSPPSSGRRGRAYAPPRSRSRDDLYDPDDPRDLPHSRDPHYYDDIRSRDPRADPRSRQRSRDPRDAGFRSRDPQYDGRLLEEALKKKGSGERRRVYREEEEEEEGQYPPAPPPYSETDSQASRERRLKKNLALSRESLVV
binds	binds	Integral membrane protein 2B (protein, UniProt Q5XIE8 1-266) MVKVTFNSALAQKEAKKDEPKSSEEALIAPPDAVAVDCKDPDDVVPVGQRRAWCWCMCFGLAFMLAGVILGGAYLYKYFALQPDDVYYCGLKYIKDDVILSEPSADAPAARYQTIEENIKIFEEDAVEFISVPVPEFADSDPANIVHDFNKKLTAYLDLNLDKCYVIPLNTSIVMPPRNLLELLINIKAGTYLPQSYLIHEHMVITDRIENVDHLGFFIYRLCHDKETYKLQRRETIRGIQKREASNCFTIRHFENKFAVETLICS
binds	binds	atrial natriuretic peptide-receptor C (protein, UniProt P41740 41-535) EALAAQKIEVLVLLPRDDSYLFSLARVRPAIEYALRSVEGNGTGRKLLPPGTRFQVAYEDSDCGNRALFSLVDRVAAARGAKPDLILGPVCEYAAAPVARLASHWDLPMLSAGALAAGFQHKDTEYSHLTRVAPAYAKMGEMMLALFRHHHWSRAALLYSDDKLERNCYFTLEGVHEVFQEEGLHTSAYNFDETKDLDLDDIVRYIQGSERVVIMCASGDTIRRIMLAVHRHGMTSGDYAFFNIELFNSSSYGDGSWKRGDKHDFEAKQAYSSLQTVTLLRTAKPEFEKFSMEVKSSVEKQGLNEEDYVNMFVEGFHDAILLYVLALHEVLRAGYSKKDGGKIIQQTWNRTFEGIAGQVSIDANGDRYGDFSVVAMTDTEAGTQEVIGDYFGKEGRFKMRSNVKYPWGSLKLRIDETRIVEHTNSSPCKSCGLEESAVTGIVVGALLGAGLLMAFYFFRKKYRITIERRNHQEESNIGKHRELREDSIRSHFSVA
